# Laboratory results as given in publication PMC7540253, “Sensitive LC-MS/MS Method for the Quantification of Macrocyclic Gαq Protein Inhibitors in Biological Samples” (Frontiers in Chemistry, 2020).
# Test: Recovery rate of the 3-step liquid-liquid extraction from spiked mouse tissues and plasma
# Conditions: organs of non-treated mice (250 mg) or plasma (100 µL) extracted with buffer spiked with 100 nM FR; 3-step LLE, LC-MS/MS; average over tissues, three independent experiments (Figure S2)
row,Substance,Recovery rate of extraction
1,FR900359,~ 50%
2,YM-254890,similarly efficient
